Source: paper PMC7893028
No constants are given. Whether binding was seen depends on the method and setting. In cells and extracts the contact can be indirect. Some entries that bind do so weakly or less than the wild type. Where a sequence is shown, tags or fusion partners need not be part of it.

Sequences of proteins named here, by UniProt entry; tags and fusion partners are left off. Residues count along the entry.
UniProt O15455, residues 24-904: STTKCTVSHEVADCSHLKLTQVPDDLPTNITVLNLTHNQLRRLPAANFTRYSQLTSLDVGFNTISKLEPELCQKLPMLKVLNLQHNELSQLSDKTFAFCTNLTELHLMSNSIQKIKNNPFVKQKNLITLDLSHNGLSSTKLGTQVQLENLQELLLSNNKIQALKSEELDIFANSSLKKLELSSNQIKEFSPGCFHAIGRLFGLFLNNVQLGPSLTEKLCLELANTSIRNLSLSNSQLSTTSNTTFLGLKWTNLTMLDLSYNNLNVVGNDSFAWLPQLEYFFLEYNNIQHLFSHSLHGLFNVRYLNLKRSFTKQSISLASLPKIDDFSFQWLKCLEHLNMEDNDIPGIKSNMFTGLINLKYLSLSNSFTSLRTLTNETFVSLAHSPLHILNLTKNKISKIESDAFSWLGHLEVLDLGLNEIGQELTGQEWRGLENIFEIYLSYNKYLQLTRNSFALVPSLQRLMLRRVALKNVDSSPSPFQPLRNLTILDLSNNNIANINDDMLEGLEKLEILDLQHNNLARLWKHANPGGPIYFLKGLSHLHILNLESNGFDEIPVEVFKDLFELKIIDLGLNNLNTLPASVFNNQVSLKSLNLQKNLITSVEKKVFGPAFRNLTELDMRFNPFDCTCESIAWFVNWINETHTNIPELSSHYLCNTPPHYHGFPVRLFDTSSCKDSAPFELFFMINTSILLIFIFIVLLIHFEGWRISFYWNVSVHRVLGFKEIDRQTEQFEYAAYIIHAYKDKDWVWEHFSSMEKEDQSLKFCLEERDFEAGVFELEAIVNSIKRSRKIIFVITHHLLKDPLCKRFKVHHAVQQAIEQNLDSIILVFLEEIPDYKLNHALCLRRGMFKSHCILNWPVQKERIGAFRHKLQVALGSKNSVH

Biological target: T1, Flag-tagged human CLEC18A, full-length (pCMV-Tag4A-hCLEC18A) (human) (UniProt A5D8T8)
T1 sequence: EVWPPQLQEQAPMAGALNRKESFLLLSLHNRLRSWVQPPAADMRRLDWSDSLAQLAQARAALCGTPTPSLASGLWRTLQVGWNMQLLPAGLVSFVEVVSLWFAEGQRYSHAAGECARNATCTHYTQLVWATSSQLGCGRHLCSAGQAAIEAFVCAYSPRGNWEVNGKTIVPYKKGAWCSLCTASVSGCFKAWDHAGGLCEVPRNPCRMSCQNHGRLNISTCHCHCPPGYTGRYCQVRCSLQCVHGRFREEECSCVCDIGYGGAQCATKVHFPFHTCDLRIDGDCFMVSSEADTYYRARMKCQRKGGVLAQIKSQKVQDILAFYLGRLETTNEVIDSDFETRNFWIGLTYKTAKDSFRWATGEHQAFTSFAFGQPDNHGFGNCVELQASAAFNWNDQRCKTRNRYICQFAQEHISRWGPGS
Assay: co-IP; 293T cells co-transfected with Flag-CLEC18A (full-length or deletion mutants, pCMV-Tag4A) and TLR3-HA (pUNO1), 48 h; precipitated with anti-Flag mAb, blot with anti-HA and anti-Flag

**Q.** How did the binding turn out when “HA-tagged human TLR3 (pUNO1-TLR3-HA) (from UniProt O15455 24-904) (receptor)” was run?
**A.** binds
